Assay results reported in PubChem BioAssay AID463116 (University of Pittsburgh Molecular Library Screening Center, 2010).
The other results are listed elsewhere or left out. These are further read-outs of the screen, such as a control signal, another cell line or another target. No call is given for them. The list favours compounds with an active or inconclusive main result.

assay: dynein cargo transport inhibitors, GR-EGFP translocation, confirmation, imaging, high-content imaging, GR-EGFP cells (AID 463116); details: 3617.4 GR-EGFP nuclear translocation imaging, dexamethasone-induced; measured here: cell count per field; at 20 µM

Row | SMILES | z-score
1 | Cc1cc(C(=O)CCl)c(C)n1Cc1ccco1 | 0.371
2 | COc1cc(/C=C2\COC/C(=C\c3ccc(O)c(OC)c3)C2=O)ccc1O | -0.00515
3 | Clc1ccc(-c2csc3ncnc(Cl)c23)cc1 | 0.934
4 | CN(C)CCCn1c(SCC(=O)N2c3ccccc3Sc3ccccc32)nc2ccccc2c1=O | -6.66
5 | O=C(Cn1ncc(Cl)c(Cl)c1=O)c1ccc(Cl)cc1 | 1.13
6 | BrC(=C\c1ccccc1)/C=N/n1cnnc1 | -0.00497
7 | Nc1ccc2c3c(cccc13)C(=O)N(c1ccccc1)C2=O | 0.564
8 | O=C(CCl)N(c1ccccc1)c1ccccc1 | 0.159
9 | CC(C)N1C(=O)/C(=C\c2nc3ccccc3c(=O)n2-c2ccccc2)c2ccccc21 | 0.246
10 | O=[N+]([O-])c1ccc(N/N=C/c2ccc[nH]2)cc1 | 0.477
11 | Nc1ncnc(Sc2ncccn2)c1[N+](=O)[O-] | -0.901
12 | CC(c1ccccc1)N1CCN(C(=O)CCl)CC1 (configuration not stated) | 0.351
13 | Cc1ccc(C2=NOC(=O)/C2=C\c2ccc(C)o2)cc1 | 0.125
14 | COc1ccc(C(=O)c2sc3nc(C)cc(-c4cccs4)c3c2N)cc1OC | -0.414
15 | Cc1cc(C)cc(Cn2ncc(Cl)c(Cl)c2=O)c1 | 0.386
16 | O=C(/C=C/c1ccccc1)/C=C/c1ccccc1 | -0.232

Copied from the list.
For z-score, Cc1cc(C)cc(Cn2ncc(Cl)c(Cl)c2=O)c1 has the entry 0.386
For z-score, O=C(Cn1ncc(Cl)c(Cl)c1=O)c1ccc(Cl)cc1 has the entry 1.13

Additional records

Row | SMILES | z-score
17 | Cc1ccc(-c2nc3cnccn3c2Nc2ccccc2)o1 | 0.547
18 | N#C/C(=C/c1ccc(N2CCCCCC2)o1)c1ccc(F)cc1 | 0.806
19 | COc1ccc(Oc2ccc(/C=C/C(=O)c3ccc(O)cc3)cc2[N+](=O)[O-])cc1 | -0.45
20 | Cc1ccc(C(=O)OCn2ncc(Cl)c(Cl)c2=O)cc1 | 0.00437
21 | COc1ccc(NC(=O)CC2Sc3ncnn3C2=O)cc1 (configuration not stated) | 0.499
22 | O=C(Nc1ccc(N2CCN(C(=O)c3ccc(Cl)cc3)CC2)cc1)c1ccc([N+](=O)[O-])o1 | 0.124
23 | Cc1nc([N+](=O)[O-])c(Br)n1CC(=O)c1ccc(F)cc1 | 0.326
24 | Cc1ccc2nc(Cl)c3nnnn3c2c1 | 0.433
25 | O=C1C(Cl)=C(Nc2ccc3cn[nH]c3c2)C(=O)c2ccccc21 | 0.691
26 | Cc1cccc(N(Cc2ccccc2)C(=O)CCl)c1 | 0.505
27 | Cc1cc(-n2c(C)cc(C(=O)CCl)c2C)no1 | -0.0372
28 | O=C1C=CC(=O)N1CCNc1ncc(C(F)(F)F)cc1Cl | 0.022
29 | CNC(=O)c1nnsc1S(=O)(=O)c1ccc(Cl)cc1 | 0.058
30 | C#CC(=O)N(c1ccc(OC)c(OC)c1)C(C(=O)NC1CCCC1)c1cccs1 (configuration not stated) | 0.893
31 | Cc1cccc(CS(=O)(=O)c2nnc([C@H](Cc3ccccc3)NC(=O)OC(C)(C)C)o2)c1 | -0.732
32 | CC[n+]1c(/C=C/C=C/N(C(C)=O)c2ccccc2)sc2ccccc21 | 0.344
